# Data reported in the M2OR odorant receptor database.
# The list shows a part of the results, in another mix than the full data. Calls are pooled over several reports, among them a noisy single-well screen. The list shows a part of the results.
# Legend:
# Settings in all cases: stereoisomer not certain
# OR1L1 = tested on: T1, OR1L1
# T1 sequence (whole entry): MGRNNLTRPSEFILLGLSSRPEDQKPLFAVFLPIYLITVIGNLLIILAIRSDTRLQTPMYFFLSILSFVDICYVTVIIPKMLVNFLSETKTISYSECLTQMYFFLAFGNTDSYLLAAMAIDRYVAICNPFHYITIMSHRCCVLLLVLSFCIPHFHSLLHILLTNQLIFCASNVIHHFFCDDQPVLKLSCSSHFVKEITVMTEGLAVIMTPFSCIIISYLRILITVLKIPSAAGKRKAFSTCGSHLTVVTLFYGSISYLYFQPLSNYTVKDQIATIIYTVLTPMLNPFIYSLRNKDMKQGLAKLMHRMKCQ
# Method in brief: (§1)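 Values were gathered from published papers (main text and supplementary material), with extra details requested from the original authors when needed, and checked for typos and inconsistencies. Each receptor–molecule pair is called responsive (active) if the original authors judged the measured signal statistically different from baseline, and non-responsive (inactive) otherwise. Assay methods varied by source, often transient mammalian cell-line luciferase assays. Recorded details include cell line, G-protein, co-transfected protein and tags.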
# OR1L3 (Homo sapiens) = molecular target: T2, OR1L3 (Homo sapiens) (UniProt Q8NH93)
# T2 sequence (whole entry): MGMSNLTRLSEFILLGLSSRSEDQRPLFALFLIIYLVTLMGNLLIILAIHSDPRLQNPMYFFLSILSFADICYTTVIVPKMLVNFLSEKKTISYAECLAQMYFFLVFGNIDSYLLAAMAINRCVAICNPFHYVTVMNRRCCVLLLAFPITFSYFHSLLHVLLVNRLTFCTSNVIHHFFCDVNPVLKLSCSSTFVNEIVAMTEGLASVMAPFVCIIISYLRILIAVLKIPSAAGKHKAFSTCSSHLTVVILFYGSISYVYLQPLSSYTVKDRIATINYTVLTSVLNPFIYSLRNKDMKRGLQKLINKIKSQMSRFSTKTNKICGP
# Method in brief: as §1
# OR1L4 = tested on: T3, OR1L4
# T3 sequence (whole entry): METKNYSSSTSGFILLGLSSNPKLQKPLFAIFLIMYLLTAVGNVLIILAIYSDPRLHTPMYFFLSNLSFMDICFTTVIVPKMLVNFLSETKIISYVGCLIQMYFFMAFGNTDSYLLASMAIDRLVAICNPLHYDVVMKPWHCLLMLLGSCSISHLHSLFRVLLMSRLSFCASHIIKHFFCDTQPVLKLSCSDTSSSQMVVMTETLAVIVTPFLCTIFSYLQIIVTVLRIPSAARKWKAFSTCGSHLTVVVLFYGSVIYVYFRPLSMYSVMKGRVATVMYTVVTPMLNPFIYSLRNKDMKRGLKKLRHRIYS
# Method in brief: as §1
# OR1L6 = tested on: T4, OR1L6
# T4 sequence (whole entry): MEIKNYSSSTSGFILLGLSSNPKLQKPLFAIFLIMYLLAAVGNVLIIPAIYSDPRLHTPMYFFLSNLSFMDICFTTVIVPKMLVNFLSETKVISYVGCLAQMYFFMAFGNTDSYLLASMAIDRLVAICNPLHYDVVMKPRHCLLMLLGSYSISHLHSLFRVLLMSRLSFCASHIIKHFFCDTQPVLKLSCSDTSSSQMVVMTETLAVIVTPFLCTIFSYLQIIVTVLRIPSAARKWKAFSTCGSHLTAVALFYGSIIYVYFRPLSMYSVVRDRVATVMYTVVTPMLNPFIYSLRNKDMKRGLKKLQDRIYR
# Method in brief: as §1
# OR1L8 (Homo sapiens) = molecular target: T5, OR1L8 (Homo sapiens) (UniProt Q8NGR8)
# T5 sequence (whole entry): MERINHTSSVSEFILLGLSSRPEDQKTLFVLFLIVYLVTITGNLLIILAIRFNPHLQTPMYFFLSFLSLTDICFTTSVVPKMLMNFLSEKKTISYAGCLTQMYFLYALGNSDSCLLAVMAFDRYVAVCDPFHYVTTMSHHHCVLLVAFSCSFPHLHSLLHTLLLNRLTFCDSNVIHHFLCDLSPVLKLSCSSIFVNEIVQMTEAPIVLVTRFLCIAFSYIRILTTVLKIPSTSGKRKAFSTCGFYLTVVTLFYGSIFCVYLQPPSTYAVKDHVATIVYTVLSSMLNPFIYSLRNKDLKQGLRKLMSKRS
# Method in brief: as §1
# OR1M1 = tested on: T6, OR1M1
# T6 sequence (whole entry): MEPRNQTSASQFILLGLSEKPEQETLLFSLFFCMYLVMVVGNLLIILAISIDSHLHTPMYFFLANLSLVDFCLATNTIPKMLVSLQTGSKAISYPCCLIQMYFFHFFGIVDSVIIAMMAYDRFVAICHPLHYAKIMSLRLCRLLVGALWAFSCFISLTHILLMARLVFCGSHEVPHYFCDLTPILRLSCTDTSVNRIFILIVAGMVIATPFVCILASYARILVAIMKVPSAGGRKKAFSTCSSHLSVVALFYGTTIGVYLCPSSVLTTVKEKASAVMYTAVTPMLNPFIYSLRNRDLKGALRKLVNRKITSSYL
# Method in brief: as §1
# OR1N1 (Homo sapiens) = molecular target: T7, OR1N1 (Homo sapiens) (UniProt Q8NGS0)
# T7 sequence (whole entry): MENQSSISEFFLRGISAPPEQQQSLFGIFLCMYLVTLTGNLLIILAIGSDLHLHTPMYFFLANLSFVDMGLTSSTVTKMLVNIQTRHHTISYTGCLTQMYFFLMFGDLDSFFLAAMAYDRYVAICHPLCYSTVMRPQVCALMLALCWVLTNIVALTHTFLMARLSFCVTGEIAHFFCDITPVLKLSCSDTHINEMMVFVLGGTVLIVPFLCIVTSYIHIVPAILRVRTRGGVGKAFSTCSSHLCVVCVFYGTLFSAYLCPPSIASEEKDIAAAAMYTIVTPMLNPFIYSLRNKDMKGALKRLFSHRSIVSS
# Method in brief: as §1
# OR1N2 (Homo sapiens) = molecular target: T8, OR1N2 (Homo sapiens) (UniProt Q8NGR9)
# T8 sequence (whole entry): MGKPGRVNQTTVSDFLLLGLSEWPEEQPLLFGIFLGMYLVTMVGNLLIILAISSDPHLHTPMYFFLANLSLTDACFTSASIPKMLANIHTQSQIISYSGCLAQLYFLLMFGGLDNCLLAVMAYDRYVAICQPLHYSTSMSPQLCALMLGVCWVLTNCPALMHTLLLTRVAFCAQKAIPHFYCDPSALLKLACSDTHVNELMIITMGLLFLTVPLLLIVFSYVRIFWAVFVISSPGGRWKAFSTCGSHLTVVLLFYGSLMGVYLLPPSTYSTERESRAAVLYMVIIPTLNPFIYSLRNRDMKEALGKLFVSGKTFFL
# Method in brief: as §1
# OR1N2 = tested on: T9, OR1N2
# T9 sequence (whole entry): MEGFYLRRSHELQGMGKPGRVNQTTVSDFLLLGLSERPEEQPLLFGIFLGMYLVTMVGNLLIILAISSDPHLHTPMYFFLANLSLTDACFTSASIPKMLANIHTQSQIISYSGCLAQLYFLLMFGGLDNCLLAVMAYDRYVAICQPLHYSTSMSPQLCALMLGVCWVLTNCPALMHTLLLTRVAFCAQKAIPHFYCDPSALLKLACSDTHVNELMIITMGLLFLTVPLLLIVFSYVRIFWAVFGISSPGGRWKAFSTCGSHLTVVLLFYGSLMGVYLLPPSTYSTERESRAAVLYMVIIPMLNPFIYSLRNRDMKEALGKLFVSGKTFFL
# Method in brief: as §1
# OR1Q1 = tested on: T10, OR1Q1
# T10 sequence (whole entry): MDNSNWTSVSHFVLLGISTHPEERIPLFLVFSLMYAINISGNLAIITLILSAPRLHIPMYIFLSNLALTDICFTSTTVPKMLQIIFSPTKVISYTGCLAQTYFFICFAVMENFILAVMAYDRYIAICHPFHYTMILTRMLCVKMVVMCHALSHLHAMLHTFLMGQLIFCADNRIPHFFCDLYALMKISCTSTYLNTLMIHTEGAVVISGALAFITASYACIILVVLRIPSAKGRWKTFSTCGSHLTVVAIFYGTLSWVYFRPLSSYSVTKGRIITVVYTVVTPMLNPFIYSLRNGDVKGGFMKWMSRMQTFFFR
# Method in brief: as §1
# OR1S1 = tested on: T11, OR1S1
# T11 sequence (whole entry): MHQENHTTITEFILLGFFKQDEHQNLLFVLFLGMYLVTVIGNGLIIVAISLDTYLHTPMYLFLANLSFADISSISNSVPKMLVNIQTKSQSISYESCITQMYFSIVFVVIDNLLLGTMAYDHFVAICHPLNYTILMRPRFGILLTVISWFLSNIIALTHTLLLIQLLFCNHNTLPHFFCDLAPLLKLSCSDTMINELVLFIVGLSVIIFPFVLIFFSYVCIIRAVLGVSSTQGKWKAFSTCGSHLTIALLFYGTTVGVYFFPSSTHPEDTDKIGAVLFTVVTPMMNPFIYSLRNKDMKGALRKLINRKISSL
# Method in brief: as §1
# OR1S2 = tested on: T12, OR1S2
# T12 sequence (whole entry): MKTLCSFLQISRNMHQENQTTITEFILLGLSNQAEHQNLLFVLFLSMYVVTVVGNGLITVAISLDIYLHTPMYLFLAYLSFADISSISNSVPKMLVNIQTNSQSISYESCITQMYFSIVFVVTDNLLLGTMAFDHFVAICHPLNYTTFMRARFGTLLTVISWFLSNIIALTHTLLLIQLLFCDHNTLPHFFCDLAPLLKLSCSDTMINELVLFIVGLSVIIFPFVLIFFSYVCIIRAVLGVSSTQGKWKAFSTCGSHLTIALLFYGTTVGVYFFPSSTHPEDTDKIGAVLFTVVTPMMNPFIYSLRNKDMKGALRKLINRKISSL
# Method in brief: as §1
# OR2A1 (Homo sapiens) = molecular target: T13, OR2A1 (Homo sapiens) (UniProt Q8NGT9)
# T13 sequence (whole entry): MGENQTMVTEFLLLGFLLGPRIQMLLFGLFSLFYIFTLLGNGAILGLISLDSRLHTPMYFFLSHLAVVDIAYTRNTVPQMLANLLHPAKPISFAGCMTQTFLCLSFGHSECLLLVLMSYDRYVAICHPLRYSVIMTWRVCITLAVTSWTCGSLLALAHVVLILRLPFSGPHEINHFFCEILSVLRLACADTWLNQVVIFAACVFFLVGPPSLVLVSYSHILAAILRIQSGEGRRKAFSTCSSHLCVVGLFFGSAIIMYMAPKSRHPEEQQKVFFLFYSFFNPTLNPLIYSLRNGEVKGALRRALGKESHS
# Method in brief: as §1
# OR2A12 (Homo sapiens) = molecular target: T14, OR2A12 (Homo sapiens) (UniProt Q8NGT7)
# T14 sequence (whole entry): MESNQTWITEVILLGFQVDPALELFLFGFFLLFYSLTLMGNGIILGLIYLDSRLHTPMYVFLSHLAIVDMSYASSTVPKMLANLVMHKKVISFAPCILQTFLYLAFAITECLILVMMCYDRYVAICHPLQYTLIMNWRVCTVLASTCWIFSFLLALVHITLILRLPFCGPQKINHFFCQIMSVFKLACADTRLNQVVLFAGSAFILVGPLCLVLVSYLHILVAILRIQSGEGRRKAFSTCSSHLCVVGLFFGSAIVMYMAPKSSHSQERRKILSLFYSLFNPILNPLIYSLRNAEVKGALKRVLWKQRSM
# Method in brief: as §1
Structure (SMILES),odorant receptor agonist call (OR1L1),odorant receptor agonist call (OR1L3 (Homo sapiens)),odorant receptor agonist call (OR1L4),odorant receptor agonist call (OR1L6),odorant receptor agonist call (OR1L8 (Homo sapiens)),odorant receptor agonist call (OR1M1),odorant receptor agonist call (OR1N1 (Homo sapiens)),odorant receptor agonist call (OR1N2 (Homo sapiens)),odorant receptor agonist call (OR1N2),odorant receptor agonist call (OR1Q1),odorant receptor agonist call (OR1S1),odorant receptor agonist call (OR1S2),odorant receptor agonist call (OR2A1 (Homo sapiens)),odorant receptor agonist call (OR2A12 (Homo sapiens))
CCCC(=O)O,inactive,inactive,inactive,inactive,inactive,inactive,inactive,inactive,inactive,inactive,active,inactive,inactive,inactive
COc1ccccc1O,inactive,inactive,inactive,inactive,inactive,inactive,inactive,inactive,inactive,inactive,inactive,inactive,,inactive
CC(C)C(=O)O,inactive,inactive,inactive,inactive,inactive,active,inactive,inactive,inactive,inactive,inactive,inactive,,inactive
CCC1(O)C2(C)CCC(C2)C1(C)C (configuration not stated),inactive,inactive,inactive,inactive,inactive,inactive,inactive,inactive,inactive,inactive,inactive,inactive,,inactive
CC(=O)OC(C)(C)C1CC=C(C)CC1 (configuration not stated),inactive,inactive,inactive,inactive,inactive,inactive,inactive,inactive,inactive,inactive,inactive,inactive,,inactive
COC(=O)c1ccccc1O,inactive,inactive,inactive,inactive,inactive,inactive,inactive,inactive,inactive,inactive,inactive,inactive,,inactive
CC1COCc2cc3c(cc21)C(C)(C)C(C)C3(C)C (configuration not stated),active,active,active,active,inactive,inactive,active,active,active,active,active,active,,active
CCCCCCCCCC=O,inactive,inactive,inactive,inactive,inactive,inactive,inactive,inactive,inactive,inactive,inactive,inactive,,inactive
C=CCc1ccc(OC)c(OC)c1,inactive,inactive,inactive,inactive,inactive,inactive,inactive,inactive,inactive,inactive,inactive,inactive,,inactive
O=CCc1ccccc1,inactive,inactive,inactive,inactive,inactive,inactive,inactive,inactive,inactive,inactive,inactive,inactive,,inactive
CCCCCCCC=CC=O,inactive,inactive,inactive,inactive,inactive,inactive,inactive,active,inactive,inactive,inactive,inactive,,inactive
CC12CCC(CC1)C(C)(C)O2,inactive,inactive,inactive,inactive,inactive,inactive,inactive,inactive,inactive,inactive,inactive,inactive,,inactive

# Single entries from the list:
# odorant receptor agonist call (OR2A12 (Homo sapiens)), CC(C)C(=O)O is entered as inactive
# odorant receptor agonist call (OR1L4), CCCC(=O)O is entered as inactive
